Experiments:
Format in all cases: cell-based
[1] = tested on: normal human foreskin fibroblasts; test: In-vitro cell viability (MTT) assay, normal fibroblasts; conditions: Fibroblast, 48 h, read-out: Anti-proliferative activity IC50
Procedure: (§1) The human cancer cells, namely, SiHa (cervical), MCF7 (breast) and Cal27 (oral) were procured from the ATCC (Manassas, VA, USA). The normal human foreskin fibroblasts were isolated after obtaining the ethical clearance from the institutional ethics committee, Kasturba Medical College, MAHE, Manipal, India. Isolation of fibroblasts was performed using skin epidermis (human dermal fibroblasts (HDF). The cells were cultured in DMEM (Dulbecco's Modified Eagle Medium) with 10% FBS (Fetal Bovine Serum) (Himedia, India). The culture medium was then renewed every 48–72 h. The cells were cultured under optimum conditions by maintaining the cells in incubator (Eppendorf CellXpert® C170, Hamburg, Germany) with 5% carbon dioxide (CO2) and humidified air at 37 °C.
(§2) The cells were trypsinized using 0.25% trypsin, and their total count was determined using a haemocytometer. Subsequently, 10,000 cells/well for SiHa, Cal27, and MCF7 cells and 5000 cells/well for fibroblast cells were seeded in 96 well plate and incubated for 24 h in CO2 incubator at 37 °C. Then 5 mg/mL of 3[-dimethylthiazol-2-yl]-2,5-diphenyl-tetrazolium bromide (MTT) was added after a 48 h incubation with varying concentrations of the test compounds. […] The optical densities (O.D) of the samples were measured at 570 nm and 640 nm using Tecan Spark (Tecan, Männedorf, Switzerland). […]

MCF7 (breast) cells = test: In-vitro cell viability (MTT) assay, MCF7; conditions: Homo sapiens, 48 h, read-out: Anti-proliferative activity IC50
Procedure: as §1, §2

SiHa (cervical) cells = test: In-vitro cell viability (MTT) assay, SiHa; conditions: Homo sapiens, 48 h, read-out: Anti-proliferative activity IC50
Procedure: as §1, §2

Cal27 (oral) cells = test: In-vitro cell viability (MTT) assay, Cal27; conditions: Homo sapiens, CAL-27, 48 h, read-out: Anti-proliferative activity IC50
Procedure: as §1, §2

SMILES: O=C(CCCCCCC(=O)Nc1ccccc1)NO [SAHA, suberoylanilide hydroxamic acid]
- IC50 [1]: > 100 µM
- IC50 (MCF7 (breast) cells): > 100 µM
- IC50 (SiHa (cervical) cells): 25.2 ± 3.69 µM
- IC50 (Cal27 (oral) cells): 10.8 ± 4.8 µM

From PMC12328545, “Anticancer potential of 2,2′-bipyridine hydroxamic acid derivatives in head and neck cancer therapy” (Journal of Computer-Aided Molecular Design, 2025)
